Source: publication PMC11214836, “ILF3 safeguards telomeres from aberrant homologous recombination as a telomeric R-loop reader”
No constants are given. Whether binding was seen depends on the method and setting. Binding seen in cells or lysates may run through a third protein. Some binding calls cover weakened binding; strength is not graded here. Sequences can lack the tags named with a protein. Values belong to the molecule of their own block, whether it stands above or below them.

Sequences of proteins named here, by UniProt entry; tags and fusion partners are left off.
UniProt Q08211: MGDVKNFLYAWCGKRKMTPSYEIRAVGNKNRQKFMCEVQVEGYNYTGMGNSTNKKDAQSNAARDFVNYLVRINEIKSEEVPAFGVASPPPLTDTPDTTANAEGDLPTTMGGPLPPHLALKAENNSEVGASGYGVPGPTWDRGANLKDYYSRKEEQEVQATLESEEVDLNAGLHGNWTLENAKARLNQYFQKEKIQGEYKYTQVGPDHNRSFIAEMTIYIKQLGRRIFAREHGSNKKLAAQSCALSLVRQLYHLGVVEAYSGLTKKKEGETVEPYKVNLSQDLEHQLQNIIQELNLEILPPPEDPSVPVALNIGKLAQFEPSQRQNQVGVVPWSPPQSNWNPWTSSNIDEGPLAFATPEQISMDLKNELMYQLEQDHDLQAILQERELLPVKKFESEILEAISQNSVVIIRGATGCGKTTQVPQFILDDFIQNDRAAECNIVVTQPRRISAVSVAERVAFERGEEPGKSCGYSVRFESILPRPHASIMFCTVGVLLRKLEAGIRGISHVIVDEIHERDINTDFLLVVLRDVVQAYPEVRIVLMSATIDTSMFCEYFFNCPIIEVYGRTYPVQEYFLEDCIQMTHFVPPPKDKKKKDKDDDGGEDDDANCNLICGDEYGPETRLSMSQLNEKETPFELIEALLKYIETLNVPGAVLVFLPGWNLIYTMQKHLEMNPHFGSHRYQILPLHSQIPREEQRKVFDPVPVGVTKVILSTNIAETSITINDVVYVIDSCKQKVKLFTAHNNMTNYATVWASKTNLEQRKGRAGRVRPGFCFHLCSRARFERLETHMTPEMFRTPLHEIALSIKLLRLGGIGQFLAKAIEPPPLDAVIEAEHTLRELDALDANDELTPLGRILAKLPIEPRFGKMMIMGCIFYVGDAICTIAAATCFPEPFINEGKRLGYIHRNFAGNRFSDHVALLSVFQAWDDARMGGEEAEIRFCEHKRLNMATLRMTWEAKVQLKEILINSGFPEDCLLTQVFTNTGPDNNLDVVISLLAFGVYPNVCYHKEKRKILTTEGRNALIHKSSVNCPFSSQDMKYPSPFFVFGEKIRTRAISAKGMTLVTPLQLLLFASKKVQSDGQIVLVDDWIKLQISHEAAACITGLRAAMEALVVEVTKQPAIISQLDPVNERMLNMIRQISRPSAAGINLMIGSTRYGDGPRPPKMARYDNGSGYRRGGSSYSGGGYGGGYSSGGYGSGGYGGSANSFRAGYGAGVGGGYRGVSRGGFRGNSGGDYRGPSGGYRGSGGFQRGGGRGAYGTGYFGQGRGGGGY
UniProt Q96AP0: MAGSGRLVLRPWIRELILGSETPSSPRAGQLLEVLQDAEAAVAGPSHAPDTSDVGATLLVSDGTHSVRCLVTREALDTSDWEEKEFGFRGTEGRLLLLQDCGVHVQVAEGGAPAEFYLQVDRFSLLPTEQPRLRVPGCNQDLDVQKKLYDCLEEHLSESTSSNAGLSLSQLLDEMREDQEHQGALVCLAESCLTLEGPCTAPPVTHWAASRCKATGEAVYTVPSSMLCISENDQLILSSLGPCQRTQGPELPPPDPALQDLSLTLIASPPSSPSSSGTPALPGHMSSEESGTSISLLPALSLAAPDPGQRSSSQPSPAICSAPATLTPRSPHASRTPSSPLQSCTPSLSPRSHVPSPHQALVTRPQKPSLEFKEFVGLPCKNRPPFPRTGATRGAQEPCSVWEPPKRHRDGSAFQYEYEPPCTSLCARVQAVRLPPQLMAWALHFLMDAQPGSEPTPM
UniProt P54274: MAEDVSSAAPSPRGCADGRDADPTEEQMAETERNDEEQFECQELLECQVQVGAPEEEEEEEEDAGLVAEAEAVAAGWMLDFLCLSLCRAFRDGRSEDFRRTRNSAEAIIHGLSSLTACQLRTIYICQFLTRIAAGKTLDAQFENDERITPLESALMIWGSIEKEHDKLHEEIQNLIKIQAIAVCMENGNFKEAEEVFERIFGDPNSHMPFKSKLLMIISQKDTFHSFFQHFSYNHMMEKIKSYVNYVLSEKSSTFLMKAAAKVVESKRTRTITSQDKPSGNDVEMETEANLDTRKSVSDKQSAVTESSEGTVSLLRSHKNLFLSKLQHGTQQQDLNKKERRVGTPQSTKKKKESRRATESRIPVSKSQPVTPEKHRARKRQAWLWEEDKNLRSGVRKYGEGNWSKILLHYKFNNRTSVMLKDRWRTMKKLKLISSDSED

Key:
[1] = target: SFB-tagged DHX9 (UniProt Q08211); assay: co-IP; HEK293T cells transiently co-expressing SFB-tagged DHX9 and GST-tagged proteins; IP with anti-FLAG antibodies, Western blot
[2] = target: T1, NC-tagged POT1 (UniProt Q9NUX5); assay: split reporter; pairwise BiFC in HEK293T cells, NVN- and NC-tagged (Venus YFP halves) proteins co-expressed, fluorescence complementation read by flow cytometry
T1 sequence: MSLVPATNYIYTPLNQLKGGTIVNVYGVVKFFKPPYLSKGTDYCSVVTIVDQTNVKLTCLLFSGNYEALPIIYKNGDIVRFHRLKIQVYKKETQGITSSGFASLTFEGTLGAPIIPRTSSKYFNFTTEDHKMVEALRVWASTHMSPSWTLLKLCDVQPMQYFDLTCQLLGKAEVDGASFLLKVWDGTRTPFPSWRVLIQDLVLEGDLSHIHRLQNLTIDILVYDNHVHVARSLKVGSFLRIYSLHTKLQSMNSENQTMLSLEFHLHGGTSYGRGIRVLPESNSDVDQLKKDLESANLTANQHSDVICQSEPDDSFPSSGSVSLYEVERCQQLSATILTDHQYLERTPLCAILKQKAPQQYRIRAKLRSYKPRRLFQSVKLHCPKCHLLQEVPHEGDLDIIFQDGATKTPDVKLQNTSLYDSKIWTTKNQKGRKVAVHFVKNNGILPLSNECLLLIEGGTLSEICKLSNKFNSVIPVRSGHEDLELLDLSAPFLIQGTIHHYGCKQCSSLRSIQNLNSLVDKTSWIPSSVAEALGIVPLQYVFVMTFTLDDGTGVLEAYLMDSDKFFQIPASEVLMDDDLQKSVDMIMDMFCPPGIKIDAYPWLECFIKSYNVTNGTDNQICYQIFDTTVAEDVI

[3] = target: NC-tagged TPP1 (UniProt Q96AP0); assay: as above
[4] = target: T2, NC-tagged RAP1 (UniProt Q9NYB0); assay: as above
T2 sequence: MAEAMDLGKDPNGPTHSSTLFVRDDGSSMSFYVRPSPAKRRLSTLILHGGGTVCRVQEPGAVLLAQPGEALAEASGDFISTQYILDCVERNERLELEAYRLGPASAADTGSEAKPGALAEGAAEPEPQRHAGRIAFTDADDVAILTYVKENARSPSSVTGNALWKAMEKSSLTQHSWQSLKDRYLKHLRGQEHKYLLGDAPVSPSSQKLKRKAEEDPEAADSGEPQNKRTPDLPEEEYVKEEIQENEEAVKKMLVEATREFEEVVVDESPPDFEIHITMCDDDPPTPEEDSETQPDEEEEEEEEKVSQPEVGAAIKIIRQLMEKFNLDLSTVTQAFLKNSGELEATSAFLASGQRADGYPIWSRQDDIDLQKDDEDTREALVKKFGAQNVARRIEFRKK

binding [1]: binds
Molecule: GST-tagged TRF1 (from UniProt P54274 1-439)

binding [1]: binds
B1: GST-tagged ILF3 (protein, UniProt Q12906 1-894)
chain: MRPMRIFVNDDRHVMAKHSSVYPTQEELEAVQNMVSHTERALKAVSDWIDEQEKGSSEQAESDNMDVPPEDDSKEGAGEQKTEHMTRTLRGVMRVGLVAKGLLLKGDLDLELVLLCKEKPTTALLDKVADNLAIQLAAVTEDKYEILQSVDDAAIVIKNTKEPPLSLTIHLTSPVVREEMEKVLAGETLSVNDPPDVLDRQKCLAALASLRHAKWFQARANGLKSCVIVIRVLRDLCTRVPTWGPLRGWPLELLCEKSIGTANRPMGAGEALRRVLECLASGIVMPDGSGIYDPCEKEATDAIGHLDRQQREDITQSAQHALRLAAFGQLHKVLGMDPLPSKMPKKPKNENPVDYTVQIPPSTTYAITPMKRPMEEDGEEKSPSKKKKKIQKKEEKAEPPQAMNALMRLNQLKPGLQYKLVSQTGPVHAPIFTMSVEVDGNSFEASGPSKKTAKLHVAVKVLQDMGLPTGAEGRDSSKGEDSAEETEAKPAVVAPAPVVEAVSTPSAAFPSDATAEQGPILTKHGKNPVMELNEKRRGLKYELISETGGSHDKRFVMEVEVDGQKFQGAGSNKKVAKAYAALAALEKLFPDTPLALDANKKKRAPVPVRGGPKFAAKPHNPGFGMGGPMHNEVPPPPNLRGRGRGGSIRGRGRGRGFGGANHGGYMNAGAGYGSYGYGGNSATAGYSQFYSNGGHSGNASGGGGGGGGGSSGYGSYYQGDNYNSPVPPKHAGKKQPHGGQQKPSYGSGYQSHQGQQQSYNQSPYSNYGPPQGKQKGYNHGQGSYSYSNSYNSPGGGGGSDYNYESKFNYSGSGGRSGGNSYGSGGASYNPGSHGGYGGGSGGGSSYQGKQGGYSQSNYNSPGSGQNYSGPPSSYQSSQGGYGRNADHSMNYQYR

binding [2]: binds
binding [3]: binds
binding [4]: binds
B2: NVN-tagged ILF3 (protein, UniProt Q12906 1-894)
chain: B1 chain
